In PMC9716733:
No constants are given. Whether binding was seen depends on the method and setting. Binding seen in cells or lysates may run through a third protein. Some results given as binding are weak or reduced against the parent protein; the word gives no strength.

Protein sequences, listed by entry. Tags and fused reporters are not part of them.
UniProt Q16665: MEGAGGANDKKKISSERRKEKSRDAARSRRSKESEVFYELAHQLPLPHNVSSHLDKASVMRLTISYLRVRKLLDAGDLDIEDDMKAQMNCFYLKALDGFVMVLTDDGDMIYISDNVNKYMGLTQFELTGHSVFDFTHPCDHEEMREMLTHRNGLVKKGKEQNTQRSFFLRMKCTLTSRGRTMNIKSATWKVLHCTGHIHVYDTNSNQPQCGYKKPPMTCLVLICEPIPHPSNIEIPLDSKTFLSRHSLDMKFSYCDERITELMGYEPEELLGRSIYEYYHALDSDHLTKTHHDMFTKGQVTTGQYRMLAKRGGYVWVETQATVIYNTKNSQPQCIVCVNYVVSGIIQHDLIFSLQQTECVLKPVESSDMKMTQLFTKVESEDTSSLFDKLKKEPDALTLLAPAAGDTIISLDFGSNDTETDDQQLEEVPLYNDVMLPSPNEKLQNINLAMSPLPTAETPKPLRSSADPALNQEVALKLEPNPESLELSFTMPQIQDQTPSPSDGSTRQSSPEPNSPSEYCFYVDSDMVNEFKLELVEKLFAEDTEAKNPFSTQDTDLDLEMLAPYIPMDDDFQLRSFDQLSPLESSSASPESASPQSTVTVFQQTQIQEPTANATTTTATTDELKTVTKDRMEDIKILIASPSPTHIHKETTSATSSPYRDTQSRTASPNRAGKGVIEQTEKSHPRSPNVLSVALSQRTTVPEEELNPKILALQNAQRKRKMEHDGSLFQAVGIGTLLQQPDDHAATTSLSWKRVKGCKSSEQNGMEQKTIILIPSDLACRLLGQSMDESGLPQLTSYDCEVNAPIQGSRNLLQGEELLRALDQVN
UniProt Q92793: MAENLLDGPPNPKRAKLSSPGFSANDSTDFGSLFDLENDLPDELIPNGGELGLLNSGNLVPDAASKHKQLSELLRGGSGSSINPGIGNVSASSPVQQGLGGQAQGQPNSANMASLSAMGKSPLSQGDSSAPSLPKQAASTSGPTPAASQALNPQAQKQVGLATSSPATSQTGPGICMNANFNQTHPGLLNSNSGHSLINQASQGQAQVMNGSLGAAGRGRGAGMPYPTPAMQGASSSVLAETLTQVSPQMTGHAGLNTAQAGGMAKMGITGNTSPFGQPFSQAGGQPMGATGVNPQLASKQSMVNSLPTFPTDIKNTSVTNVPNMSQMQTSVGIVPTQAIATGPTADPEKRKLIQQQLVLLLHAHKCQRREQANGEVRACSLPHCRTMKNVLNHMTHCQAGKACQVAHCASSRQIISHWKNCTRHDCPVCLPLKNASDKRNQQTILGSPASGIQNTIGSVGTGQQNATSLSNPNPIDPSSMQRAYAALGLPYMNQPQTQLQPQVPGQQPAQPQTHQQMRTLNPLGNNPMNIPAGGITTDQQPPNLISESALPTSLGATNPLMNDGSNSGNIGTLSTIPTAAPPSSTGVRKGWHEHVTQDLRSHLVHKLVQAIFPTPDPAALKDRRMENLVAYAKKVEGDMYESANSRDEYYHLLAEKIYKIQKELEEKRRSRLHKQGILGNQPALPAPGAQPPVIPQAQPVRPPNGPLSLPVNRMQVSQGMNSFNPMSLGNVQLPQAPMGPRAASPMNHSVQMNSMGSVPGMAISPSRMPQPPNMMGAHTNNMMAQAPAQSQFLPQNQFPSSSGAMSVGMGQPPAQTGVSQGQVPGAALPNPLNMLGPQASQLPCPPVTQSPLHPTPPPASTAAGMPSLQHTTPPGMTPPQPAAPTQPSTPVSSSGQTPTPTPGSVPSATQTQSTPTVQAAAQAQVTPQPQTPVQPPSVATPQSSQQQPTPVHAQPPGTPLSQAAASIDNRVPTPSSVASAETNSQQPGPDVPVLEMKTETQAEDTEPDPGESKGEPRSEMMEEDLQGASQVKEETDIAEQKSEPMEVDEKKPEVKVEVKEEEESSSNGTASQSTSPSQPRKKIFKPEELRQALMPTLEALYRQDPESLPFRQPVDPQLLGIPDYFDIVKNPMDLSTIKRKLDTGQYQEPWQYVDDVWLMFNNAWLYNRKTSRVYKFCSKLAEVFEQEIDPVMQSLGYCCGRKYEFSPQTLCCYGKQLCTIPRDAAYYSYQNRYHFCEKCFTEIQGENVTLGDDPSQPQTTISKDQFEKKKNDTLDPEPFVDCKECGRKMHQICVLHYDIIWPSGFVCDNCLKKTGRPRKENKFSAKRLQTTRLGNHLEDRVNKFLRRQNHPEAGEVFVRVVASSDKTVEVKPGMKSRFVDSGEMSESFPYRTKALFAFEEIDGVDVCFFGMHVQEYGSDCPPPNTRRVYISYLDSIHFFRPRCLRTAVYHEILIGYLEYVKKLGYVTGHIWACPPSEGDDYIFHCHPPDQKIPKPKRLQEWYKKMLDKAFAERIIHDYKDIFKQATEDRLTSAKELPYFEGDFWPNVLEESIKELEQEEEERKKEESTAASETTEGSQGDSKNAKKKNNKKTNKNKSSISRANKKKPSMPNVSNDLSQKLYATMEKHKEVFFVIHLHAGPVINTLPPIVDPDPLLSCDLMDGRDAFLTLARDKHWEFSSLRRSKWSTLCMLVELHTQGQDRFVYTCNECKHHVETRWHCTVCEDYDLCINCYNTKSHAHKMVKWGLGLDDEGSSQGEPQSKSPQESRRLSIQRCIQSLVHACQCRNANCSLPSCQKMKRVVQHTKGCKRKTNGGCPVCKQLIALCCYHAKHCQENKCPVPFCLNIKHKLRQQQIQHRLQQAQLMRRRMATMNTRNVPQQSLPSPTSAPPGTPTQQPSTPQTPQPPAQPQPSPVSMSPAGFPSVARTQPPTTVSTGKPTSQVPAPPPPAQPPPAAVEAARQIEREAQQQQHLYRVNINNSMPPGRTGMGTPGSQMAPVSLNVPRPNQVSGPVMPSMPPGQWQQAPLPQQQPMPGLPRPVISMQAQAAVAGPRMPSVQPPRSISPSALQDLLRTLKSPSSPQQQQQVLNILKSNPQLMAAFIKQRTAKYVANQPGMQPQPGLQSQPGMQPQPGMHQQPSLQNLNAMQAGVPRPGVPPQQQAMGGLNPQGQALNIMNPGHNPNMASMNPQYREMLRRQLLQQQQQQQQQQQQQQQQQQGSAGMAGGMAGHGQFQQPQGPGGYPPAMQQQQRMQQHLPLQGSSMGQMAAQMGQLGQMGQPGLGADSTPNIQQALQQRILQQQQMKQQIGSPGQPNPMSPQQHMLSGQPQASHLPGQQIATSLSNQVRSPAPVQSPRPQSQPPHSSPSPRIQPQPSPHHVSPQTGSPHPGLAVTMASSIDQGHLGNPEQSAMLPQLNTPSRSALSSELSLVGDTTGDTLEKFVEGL

Target: HIF-1α (UniProt Q16665)
Experiment: co-IP; co-immunoprecipitation from total cell protein extracts, performed as previously described (refs 38, 48, 49); IgG as control; cells, oxygen condition and precipitating antibody not given

Molecule	binding
CBP (from UniProt Q92793 1-2442)	binds
ZMIZ1 (protein, UniProt Q9ULJ6 1-1067) MNSMDRHIQQTNDRLQCIKQHLQNPANFHNAATELLDWCGDPRAFQRPFEQSLMGCLTVVSRVAAQQGFDLDLGYRLLAVCAANRDKFTPKSAALLSSWCEELGRLLLLRHQKSRQSDPPGKLPMQPPLSSMSSMKPTLSHSDGSFPYDSVPWQQNTNQPPGSLSVVTTVWGVTNTSQSQVLGNPMANANNPMNPGGNPMASGMTTSNPGLNSPQFAGQQQQFSAKAGPAQPYIQQSMYGRPNYPGSGGFGASYPGGPNAPAGMGIPPHTRPPADFTQPAAAAAAAAVAAAAATATATATATVAALQETQNKDINQYGPMGPTQAYNSQFMNQPGPRGPASMGGSMNPASMAAGMTPSGMSGPPMGMNQPRPPGISPFGTHGQRMPQQTYPGPRPQSLPIQNIKRPYPGEPNYGNQQYGPNSQFPTQPGQYPAPNPPRPLTSPNYPGQRMPSQPSSGQYPPPTVNMGQYYKPEQFNGQNNTFSGSSYSNYSQGNVNRPPRPVPVANYPHSPVPGNPTPPMTPGSSIPPYLSPSQDVKPPFPPDIKPNMSALPPPPANHNDELRLTFPVRDGVVLEPFRLEHNLAVSNHVFHLRPTVHQTLMWRSDLELQFKCYHHEDRQMNTNWPASVQVSVNATPLTIERGDNKTSHKPLHLKHVCQPGRNTIQITVTACCCSHLFVLQLVHRPSVRSVLQGLLKKRLLPAEHCITKIKRNFSSVAASSGNTTLNGEDGVEQTAIKVSLKCPITFRRIQLPARGHDCKHVQCFDLESYLQLNCERGTWRCPVCNKTALLEGLEVDQYMWGILNAIQHSEFEEVTIDPTCSWRPVPIKSDLHIKDDPDGIPSKRFKTMSPSQMIMPNVMEMIAALGPGPSPYPLPPPPGGTNSNDYSSQGNNYQGHGNFDFPHGNPGGTSMNDFMHGPPQLSHPPDMPNNMAALEKPLSHPMQETMPHAGSSDQPHPSIQQGLHVPHPSSQSGPPLHHSGAPPPPPSQPPRQPPQAAPSSHPHSDLTFNPSSALEGQAGAQGASDMPEPSLDLLPELTNPDELLSYLDPPDLPSNSNDDLLSLFENN	binds
